Results from doi:10.1101/2020.01.13.904318 (bioRxiv, 2020).
Results are given in words; binding and its absence hold for the method and conditions named. Some binding calls cover weakened binding; strength is not graded here.

Tests used:
[1] = target: purified FrlR UTRA-domain (E. coli) (UniProt P45544); experiment: SEC
[2] = target: purified FrlR UTRA-domain (E. coli) (UniProt P45544); experiment: NMR

B1: purified FrlR UTRA-domain (domain or fragment)
chain: QKVENALLTVSGFTDFGVSQGKATKEKVIEQERVSAAPFCEKLNIPGNSEVFHLCRVMYLDKEPLFIDSSWIPLSRYPDFDEIYVEGSSTYQLFQERFDTRVVSDKKTIDIFAATRPQAKWLKCELGEPLFRISKIAFDQNDKPVHVSELFCRANRITLTIDNKRH
- binding [1]: binds
- binding [2]: binds
